# Source: PMC10181827
# Amino acid sequences for entries named in this document (tags omitted). A change or cut given only in a name is not applied to a line headed by its entry.
# UniProt Q69ZS8: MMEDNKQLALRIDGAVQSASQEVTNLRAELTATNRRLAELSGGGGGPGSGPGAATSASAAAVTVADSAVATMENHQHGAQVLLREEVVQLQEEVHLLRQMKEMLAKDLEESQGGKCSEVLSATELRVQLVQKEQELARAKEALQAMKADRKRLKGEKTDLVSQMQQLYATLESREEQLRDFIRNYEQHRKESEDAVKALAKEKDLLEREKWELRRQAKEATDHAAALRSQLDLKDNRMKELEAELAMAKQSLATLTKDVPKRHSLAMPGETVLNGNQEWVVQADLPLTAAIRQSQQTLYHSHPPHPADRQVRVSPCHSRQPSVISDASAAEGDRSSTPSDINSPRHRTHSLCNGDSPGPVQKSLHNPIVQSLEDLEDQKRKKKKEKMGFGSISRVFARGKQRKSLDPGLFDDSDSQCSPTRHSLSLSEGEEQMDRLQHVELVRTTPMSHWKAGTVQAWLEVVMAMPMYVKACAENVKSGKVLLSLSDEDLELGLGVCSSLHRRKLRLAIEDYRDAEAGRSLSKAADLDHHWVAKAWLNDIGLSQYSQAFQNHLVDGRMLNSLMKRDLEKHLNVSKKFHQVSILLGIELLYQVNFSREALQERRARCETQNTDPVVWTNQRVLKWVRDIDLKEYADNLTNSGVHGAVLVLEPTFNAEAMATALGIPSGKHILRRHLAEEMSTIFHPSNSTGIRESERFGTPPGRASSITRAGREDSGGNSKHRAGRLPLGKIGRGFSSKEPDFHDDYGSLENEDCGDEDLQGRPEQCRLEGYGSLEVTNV
# UniProt O08788: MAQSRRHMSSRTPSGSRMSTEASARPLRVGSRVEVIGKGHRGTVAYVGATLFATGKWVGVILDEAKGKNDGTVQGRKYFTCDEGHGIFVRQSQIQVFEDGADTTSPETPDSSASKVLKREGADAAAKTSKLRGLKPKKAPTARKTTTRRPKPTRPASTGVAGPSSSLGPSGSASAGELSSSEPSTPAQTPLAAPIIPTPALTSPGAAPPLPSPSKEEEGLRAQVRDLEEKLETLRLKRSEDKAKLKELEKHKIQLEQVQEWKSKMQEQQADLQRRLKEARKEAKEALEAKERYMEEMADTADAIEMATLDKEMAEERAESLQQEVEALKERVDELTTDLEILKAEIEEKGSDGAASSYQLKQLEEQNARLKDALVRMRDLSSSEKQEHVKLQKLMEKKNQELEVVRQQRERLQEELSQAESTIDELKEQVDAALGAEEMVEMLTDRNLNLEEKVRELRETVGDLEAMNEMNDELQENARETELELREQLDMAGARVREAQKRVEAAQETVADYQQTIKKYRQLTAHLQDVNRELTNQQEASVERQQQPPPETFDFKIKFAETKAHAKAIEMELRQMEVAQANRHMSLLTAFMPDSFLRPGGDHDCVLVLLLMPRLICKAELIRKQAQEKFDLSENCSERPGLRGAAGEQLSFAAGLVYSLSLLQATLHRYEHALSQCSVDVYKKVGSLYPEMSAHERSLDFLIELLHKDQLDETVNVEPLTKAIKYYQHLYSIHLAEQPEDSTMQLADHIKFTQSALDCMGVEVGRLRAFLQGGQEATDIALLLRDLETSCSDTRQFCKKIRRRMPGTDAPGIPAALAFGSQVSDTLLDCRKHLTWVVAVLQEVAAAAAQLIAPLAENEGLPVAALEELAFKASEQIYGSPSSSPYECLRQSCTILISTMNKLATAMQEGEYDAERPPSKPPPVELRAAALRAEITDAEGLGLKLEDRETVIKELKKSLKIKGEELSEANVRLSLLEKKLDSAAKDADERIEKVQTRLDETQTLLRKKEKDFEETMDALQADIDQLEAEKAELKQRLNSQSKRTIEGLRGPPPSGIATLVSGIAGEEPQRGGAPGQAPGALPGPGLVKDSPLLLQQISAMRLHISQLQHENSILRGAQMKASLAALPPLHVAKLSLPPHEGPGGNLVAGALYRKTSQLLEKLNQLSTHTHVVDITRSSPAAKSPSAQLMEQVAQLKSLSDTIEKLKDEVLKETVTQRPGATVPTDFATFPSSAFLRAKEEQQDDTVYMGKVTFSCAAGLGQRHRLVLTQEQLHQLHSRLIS
# UniProt P22892: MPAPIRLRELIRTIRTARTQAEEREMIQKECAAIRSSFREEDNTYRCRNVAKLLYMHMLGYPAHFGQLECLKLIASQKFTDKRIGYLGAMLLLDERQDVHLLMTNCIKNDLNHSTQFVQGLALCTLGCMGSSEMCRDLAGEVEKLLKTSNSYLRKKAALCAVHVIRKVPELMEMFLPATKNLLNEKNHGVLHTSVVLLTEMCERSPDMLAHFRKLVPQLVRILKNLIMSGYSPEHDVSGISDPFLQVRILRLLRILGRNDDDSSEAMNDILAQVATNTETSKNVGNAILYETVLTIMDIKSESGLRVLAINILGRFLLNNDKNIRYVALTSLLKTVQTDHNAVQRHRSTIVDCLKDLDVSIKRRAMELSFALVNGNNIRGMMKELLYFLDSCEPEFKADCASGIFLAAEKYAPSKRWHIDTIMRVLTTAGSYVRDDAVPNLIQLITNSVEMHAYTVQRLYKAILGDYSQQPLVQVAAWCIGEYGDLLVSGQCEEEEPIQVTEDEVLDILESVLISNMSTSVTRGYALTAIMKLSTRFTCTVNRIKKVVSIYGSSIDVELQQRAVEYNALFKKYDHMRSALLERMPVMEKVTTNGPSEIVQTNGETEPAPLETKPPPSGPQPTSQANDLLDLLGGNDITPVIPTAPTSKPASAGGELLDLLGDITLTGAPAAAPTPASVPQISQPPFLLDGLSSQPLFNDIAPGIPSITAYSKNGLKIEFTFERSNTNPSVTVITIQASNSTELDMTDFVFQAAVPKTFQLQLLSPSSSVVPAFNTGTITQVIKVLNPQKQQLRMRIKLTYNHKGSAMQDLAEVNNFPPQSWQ
# Columns and labels:
# GST-EHD3 = target: T1, GST-EHD3 (UniProt Q9NZN3); experiment: pull-down; glutathione-Sepharose beads coated with 0.5 μg GST fusion protein, 2 nM eluted 6xHis-kazrin C in 1 ml PBS with 0.2% Triton-X100 and 0.5% BSA, 1 hr at 4 °C; immunoblot with anti-kazrin (Figures 3C and 5J); both purified
# T1 sequence: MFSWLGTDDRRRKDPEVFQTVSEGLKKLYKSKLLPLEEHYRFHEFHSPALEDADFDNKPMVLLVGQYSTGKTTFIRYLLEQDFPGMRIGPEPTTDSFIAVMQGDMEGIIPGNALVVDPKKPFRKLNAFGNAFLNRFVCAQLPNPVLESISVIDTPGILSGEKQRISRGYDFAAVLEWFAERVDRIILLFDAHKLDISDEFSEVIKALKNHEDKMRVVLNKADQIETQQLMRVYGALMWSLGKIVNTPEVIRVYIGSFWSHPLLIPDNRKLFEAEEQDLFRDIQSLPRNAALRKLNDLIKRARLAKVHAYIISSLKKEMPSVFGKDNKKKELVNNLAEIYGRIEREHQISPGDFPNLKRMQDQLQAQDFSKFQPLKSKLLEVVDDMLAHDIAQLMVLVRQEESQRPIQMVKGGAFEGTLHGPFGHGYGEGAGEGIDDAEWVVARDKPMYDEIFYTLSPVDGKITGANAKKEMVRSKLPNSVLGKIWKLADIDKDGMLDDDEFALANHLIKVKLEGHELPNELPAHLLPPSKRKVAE
# GST-EHD1 = target: T2, GST-EHD1 (UniProt Q9H4M9); experiment: as above
# T2 sequence: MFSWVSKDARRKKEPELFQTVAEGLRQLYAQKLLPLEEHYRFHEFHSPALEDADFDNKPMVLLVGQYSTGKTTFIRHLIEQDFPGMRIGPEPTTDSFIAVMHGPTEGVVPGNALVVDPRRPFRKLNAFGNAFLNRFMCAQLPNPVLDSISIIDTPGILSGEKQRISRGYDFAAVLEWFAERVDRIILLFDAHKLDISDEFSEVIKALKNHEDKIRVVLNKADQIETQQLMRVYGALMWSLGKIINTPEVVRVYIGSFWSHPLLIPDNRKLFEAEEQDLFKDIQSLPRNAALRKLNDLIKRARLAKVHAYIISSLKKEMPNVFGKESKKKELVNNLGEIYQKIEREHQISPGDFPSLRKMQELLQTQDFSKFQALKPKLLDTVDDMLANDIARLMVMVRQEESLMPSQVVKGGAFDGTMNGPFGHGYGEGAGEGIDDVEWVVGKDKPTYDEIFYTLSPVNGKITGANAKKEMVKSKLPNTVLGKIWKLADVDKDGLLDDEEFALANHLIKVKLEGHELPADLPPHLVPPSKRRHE
# [1] = target: endogenous kazrin (mouse (endogenous in MEF)) (UniProt Q69ZS8); experiment: co-IP; endogenous; WT or kazKO MEF extracts with rabbit IgGs against kazrin C (methods: C-terminus, aa 161-327; legends: mixed sera against the N- and C-terminal portions) pre-bound to Protein A-Sepharose, or pre-immune IgGs; immunoblot
Substance,binding (GST-EHD3),binding (GST-EHD1),binding [1]
6xHis-kazrin C (human),binds,binds,–
p150-glued (from UniProt O08788 1-1281),–,–,binds
γ-adaptin (from UniProt P22892 1-822),–,–,binds

# These are yes or no findings as the source states them, for the method shown. Binding calls can cover weak binding; strength is not graded here. For some of these results: Tags and fused reporters may be left off the sequences shown. For some of these results: Binding seen in cells or lysates may run through a third protein.
